Results of single-concentration screens

By UniProt entry, the sequences of proteins in these tests, tags left out.
UniProt P9WPC5, whole entry: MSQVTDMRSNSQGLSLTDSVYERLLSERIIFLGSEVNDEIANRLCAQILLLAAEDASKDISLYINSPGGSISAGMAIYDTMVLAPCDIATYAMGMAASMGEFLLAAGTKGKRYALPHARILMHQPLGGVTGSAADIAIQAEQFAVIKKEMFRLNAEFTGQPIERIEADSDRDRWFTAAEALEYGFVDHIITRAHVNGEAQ
UniProt P9WPC3, whole entry partner: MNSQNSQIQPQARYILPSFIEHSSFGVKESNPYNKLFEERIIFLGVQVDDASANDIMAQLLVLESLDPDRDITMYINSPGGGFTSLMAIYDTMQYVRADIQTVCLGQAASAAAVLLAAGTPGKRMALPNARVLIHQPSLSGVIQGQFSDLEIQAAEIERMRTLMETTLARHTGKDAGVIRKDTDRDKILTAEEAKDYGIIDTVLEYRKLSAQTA

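ClpP1P2, Mycobacterium tuberculosis (UniProt P9WPC5 and UniProt P9WPC3). Protease assay of ClpP1P2, read by the AMC dye that it sets free. Compounds at 50 µM. Higher reads as stronger inhibition, judged from the few compounds that gave an IC50. Most other retested compounds had strongly negative values. About 69,000 compounds were tested under these conditions; 0.015% (about 10) showed 50% or more at least once.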

Each number is a percent effect as filed.
How 0% and 100% were set is not recorded. Most values in the screen are low, and negative values occur.
The compounds are a random part of those screened.

| compound | Percent Effect |
|---|---|
| `C/C=C(\C)CN1CCC2(CCC(=O)N2OCc2ccccc2F)CC1` | -10.77 |
| `Cc1ccc(-c2ncc(C(=O)N3CCCC(CCN)C3)c(O)n2)cc1` (centres unmarked) | -2.861 |
| `O=C(NCCn1ccnc1)NCC(c1ccco1)N1CCCC1` (centres unmarked) | -37.61 |
| `CC(C)c1nc(C2CCCN2Cc2nnc(C3CCC3)o2)no1` (centres unmarked) | -27.8 |
| `CC(C#N)CSc1ccccc1NCC(=O)NCc1ccccc1` (centres unmarked) | -13.53 |
| `CCc1ccc(CN2CCN(C)C3(CCC(=O)N(CC4CC4)CC3)C2)o1` (centres unmarked) | -8.539 |
| `CN1CCC(Nc2ccc(Cl)cc2OCC(F)(F)F)C1=O` (centres unmarked) | -1.549 |
| `Cc1ncsc1CN1CCn2nc(CCC(=O)N3CCCC3)cc2C1` | -12.19 |
| `Cc1nccn1C1CCCN(C(=O)c2cccc3c2OCO3)C1` (centres unmarked) | 13.9 |
| `CC(NC(=O)CCS(=O)(=O)C1CCCC1)c1nc(-c2ccccc2)c[nH]1` (centres unmarked) | -0.8125 |
| `CCOCC1CN(Cc2ccoc2)Cc2ncn(CC3CC3)c21` (centres unmarked) | -8.947 |
| `CN1CCc2c(C#N)c(NCc3ccccc3)n3cnnc3c2C1` | -8.388 |
| `Fc1cccc(CN2CCOCC3(CCN(C4CCOCC4)C3)C2)c1` (centres unmarked) | -0.6322 |
| `CC(C)C(=O)NC(Cc1cc(N(C)C)nc(C2CC2)n1)c1ccccc1` (centres unmarked) | -33.15 |
| `CCn1nnc2c1C(COCCN(C)C)CN(c1nncs1)C2` (centres unmarked) | 13.46 |
| `Cc1c(NC(C)C(C)C)cccc1C(=O)NCc1nnc(C)n1C` (centres unmarked) | -1.423 |
| `c1nc(N2CCOCC2)ncc1-c1cncn1CCCN1CCCCC1` | -18.48 |
| `COc1cc(N2C[C@H](C(=O)NC3CC3)[C@@H]3CCO[C@@H]3C2)ncn1` | -11.76 |
| `CC(=O)N1CCCC1c1nnn2cc(-c3ccncc3)ccc12` (centres unmarked) | -7.851 |
| `Cc1cc(N2CCC(n3cc(CN4CCC[C@@H]4CO)nn3)CC2)ccn1` | -15.32 |
| `CCCn1nccc1-c1cnc(CC2CCN(C(C)=O)C2)cn1` (centres unmarked) | -17.92 |
| `CN(Cc1ccccc1Cl)C(C(=O)O)c1ccc(F)c(CO)c1` (centres unmarked) | -3.142 |
| `O=C(NCc1cc[nH]n1)N1CCC(Oc2ccccc2Cl)CC1` | -17.9 |
| `CNC(=O)CN1CCO[C@H]2CN(C(=O)c3ccncc3F)C[C@H]21` | 0.6333 |
| `CC(C)Cn1cnnc1C1CCCN1C(=O)c1cc2ccccn2c1` (centres unmarked) | 2.161 |
| `OCC1(O)CCCN(Cc2noc(-c3ccccc3)n2)CC1` (centres unmarked) | -3.58 |
| `CC[C@@H]1N(Cc2ccc(OC)cc2)CCC[C@]12CCC(=O)N2CCOC` | -5.11 |
| `CCCn1nnnc1CSc1nccn1C` | 4.599 |
| `Cc1cc(C(=O)NCc2ccc(-c3n[nH]cc3C(=O)N(C)C)cc2)on1` | 0.7085 |
| `COc1cccc2c1OCC(C(=O)NCc1nc3c(s1)CCCC3)C2` (centres unmarked) | -6.636 |
| `N#Cc1ccc(F)c(CN2CCNC(=O)C2c2cccs2)c1` (centres unmarked) | -726.3 |
| `Cc1nc(C)c(CNC(=O)NC(c2nnc3n2CCC3)C(C)C)s1` (centres unmarked) | 2.061 |
| `CN1CC[C@H](N(Cc2ccccc2)C2COC2)C[C@H](O)C1` | -3.772 |
| `O=C(NCC1COCc2c(-c3ccncc3)nnn2C1)[C@H]1CCCO1` (some centres unmarked) | 3.248 |
| `CCN(CC1CCCO1)C(=O)CSCC(=O)Nc1ccc(C)cc1` (centres unmarked) | -5.179 |
| `O=c1ccc(-c2cccs2)nn1CN1CCCCCC1` | 5.578 |
| `Cc1cccc(CN2C(=O)CO[C@@H]3CN(Cc4nccn4C)C[C@H]32)c1` | 4.881 |
| `O=C(c1cscn1)N1CCc2ncnc(-c3ccncc3)c2CC1` | 11.39 |
| `CC(C)CN1CCCn2nc(CNC(=O)c3cccnc3O)cc2C1` | -6.807 |
| `CCCN1CCN(C(=O)c2ccc(Cl)cn2)[C@H]2CS(=O)(=O)C[C@H]21` | 11.14 |
| `CCn1nc(C)c(CNC(=O)C2COc3ccccc3C2)c1C` (centres unmarked) | -21.72 |
| `COCCN1CCc2cc(C(=O)N(C)C)c(NC(C)C)nc2CC1` | -20.22 |
| `CCC(CC)NC(=O)c1nc2n(n1)-c1ccccc1S(=O)(=O)N2` | 0.1736 |
| `Cc1oc(-c2ccco2)nc1CC(=O)N1CCN(CC(C)(C)O)CC1` | -5.15 |
| `Cc1ccc(C(C)NCc2cn(CCC(N)=O)c3ccccc23)cc1C` (centres unmarked) | -0.02527 |
| `CO[C@H]1CO[C@@]2(CCCN(C(=O)N3CCCC3)C2)C1` | -1.002 |
| `O=C(O)C1(Oc2ccc3ccccc3c2)CCN(c2ccncc2)CC1` | -9.719 |
| `CN(C)C(=O)C1CN(Cc2ccsc2)CCN(S(C)(=O)=O)C1` (centres unmarked) | -3.999 |
| `O=C(c1ccc(O)c(Cl)c1)N1C[C@@H](CN2CCCCCC2)[C@@H](CO)C1` | -3.203 |
| `O=S(=O)(C1CC1)N1CCC2(COCc3cnc(-c4cccnc4)nc32)C1` (centres unmarked) | -1.148 |
| `CC(C(=O)NCc1ccc(N2CCNC(=O)C2)cc1)n1cncn1` (centres unmarked) | -8.206 |
| `O=C1C[C@@H]2CCN(Cc3ccccc3)C[C@@H]2CCN1c1ccccc1` | -2.536 |
| `CS(=O)(=O)NCCCN1CCCC1c1cccc(Br)c1` (centres unmarked) | -9.488 |
| `Cc1cnn(C2CCCN(C(=O)c3c(C)oc(C)c3C)C2)c1` (centres unmarked) | 11.04 |
| `CC1CCN(C(=O)C2(Cc3cc(C4CCOC4)no3)CCNCC2)CC1` (centres unmarked) | -12.21 |
| `CC(C)N[C@@H]1CO[C@H](CNC(=O)c2cccs2)[C@H]1O` | -9.202 |
| `O=C([C@@H]1CCO[C@@H]2CCN(Cc3ccc(F)cc3)C[C@H]21)N1CCCCO1` | 7.446 |
| `Cc1cc(=O)[nH]c(SC(C)C(=O)N2CCCN(C3CCCC3)CC2)n1` (centres unmarked) | -6.315 |
| `CC(C)SCC(=O)N1CCCn2nc(C(=O)Nc3ccccc3)cc2C1` | 15.61 |
| `Cc1cc(C)cc(OCCC(=O)NC2CC(=O)N(C)C2)c1` (centres unmarked) | 0.1509 |
| `Cc1cccc(-c2ccc(C(=O)NCC3CCCO3)c(=O)[nH]2)c1` (centres unmarked) | -23.87 |
| `CNS(=O)(=O)c1cccc(C(C)NCc2ccc(F)cc2F)c1` (centres unmarked) | -3.083 |
| `CC(C)OC[C@H]1CCC[C@]12CN(S(=O)(=O)c1cccs1)CCO2` | -17.32 |
| `Cc1cccc(CNC2(CCO)CCOCC2)c1C` | -0.3046 |

Data taken from ChEMBL document CHEMBL3988442, “University of Dundee, Small-Polar-MMV Screening Library” (2021).